Results as given in PubChem BioAssay AID1439 (NMMLSC, 2008).
The whole screen tested about 220,000 compounds, of which about 770 (0.35%) were called active. This list was built around the results that the source calls inconclusive (neither active nor inactive); the mix of calls is not that of the screen. Rule as the data show it: active = binding response below about 49% or above about 150%; inconclusive = no clear call, values can overlap the other calls; inactive = in between.

Amino acid sequences for entries named in this document (tags omitted).
UniProt P09471, whole entry, looked up: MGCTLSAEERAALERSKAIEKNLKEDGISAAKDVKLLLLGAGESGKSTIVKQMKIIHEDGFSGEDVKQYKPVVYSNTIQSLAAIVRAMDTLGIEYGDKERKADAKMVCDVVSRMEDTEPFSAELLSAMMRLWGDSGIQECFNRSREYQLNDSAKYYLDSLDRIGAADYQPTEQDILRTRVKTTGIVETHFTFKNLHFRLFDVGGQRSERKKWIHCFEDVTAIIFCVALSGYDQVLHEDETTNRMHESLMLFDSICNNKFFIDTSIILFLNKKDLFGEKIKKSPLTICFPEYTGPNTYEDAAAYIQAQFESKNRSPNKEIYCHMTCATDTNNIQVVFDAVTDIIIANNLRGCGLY

These compounds were tested against Guanine nucleotide-binding protein G(o) subunit alpha (Homo sapiens) (UniProt P09471) (assay: RGS7-Galphao binding modulators, primary screen, biochemical, multiplexed bead flow cytometry (AID 1439;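 also: fluorescent Galphao held in activated GDP-AlF4 state binding bead-coupled RGS7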)). Settings: at 10 µM, actives lie on both sides.

SMILES | binding response (% of control)
CCOC(=O)c1ccccc1OC(=O)CS(=O)c1ccccc1[N+](=O)[O-] (configuration not stated) | inconclusive: 84.2%
NC(=O)c1ccc(F)cc1 | active: 18.5%
CSc1oc(-c2cccs2)nc1S(=O)(=O)c1ccccc1 | inconclusive: 84.5%
COc1ccc(/C=C2/SC(=O)N(CCNC(=O)CC(NC(C)=O)c3ccccc3)C2=O)cc1 (configuration not stated) | inconclusive: -4.08%
CC1=CC2=NC(=O)/C(=C\c3ccc(-c4ccc(Cl)cc4)o3)C(=N)N2O1 | active: 167% [activator]
N#Cc1cccnc1N1CCC(C(N)=O)CC1 | inconclusive: 87.2%
Cc1cc(/C=C(\C#N)C(=O)O)c(C)n1CC(C)C | inactive: 100%
O=C(O)c1cc(N/N=C/c2cccnc2)ccc1Cl | inconclusive: 111%
O=C(COc1ccccc1)N1CCN(S(=O)(=O)c2ccc(Cl)cc2)CC1 | inactive: 99.5%
COc1ccc2[nH]c(C(=O)Nc3ccc4c(c3)OCO4)cc2c1 | inconclusive: 108%
CC(C)OC(=O)CSc1nc(N)c(C#N)cc1C#N | inconclusive: 59.6%
CCOc1ccc2nc3c(cc2c1)CN(CCOC)C(=NC)S3 | inactive: 105%
CCn1c(SCC(=O)NCCc2ccccc2)nc2sc3c(c2c1=O)CCN(C)C3 | inconclusive: 58.1%
O=C(c1cc2c(F)cccc2s1)N1CCCC1 | inconclusive: 110%
Cc1ccc(NC(=O)c2cc(-c3ccco3)nc3ccccc23)cc1S(=O)(=O)N1CCOCC1 | inconclusive: 67.4%
CCOc1cc(/C=N/Nc2nc(-c3cccc(S(=O)(=O)N4CCCC4)c3)cs2)ccc1O | inactive: 103%
COc1ccc(-n2c(SCC(=O)Nc3ccccc3)nc(O)cc2=O)cc1 | inconclusive: 104%
COc1ccc(/C=C(\C#N)C(=O)NC2CCS(=O)(=O)C2)cc1OC (configuration not stated) | inactive: 99.7%
CCN(CC)C(=O)Cc1c(O)c2ccccc2[nH]c1=O | inconclusive: 81.6%

SMILES | binding response (% of control)
O=C(N/N=C/c1ccncc1)c1ccc(NC(=O)c2ccc(Cl)cc2)cc1 | inconclusive: 105%
COc1ccc(-c2csc(NC3OC(=O)c4c3ccc(OC)c4OC)n2)cc1OC (configuration not stated) | inconclusive: 69.4%
CCC(C)N(C)C(=O)c1cc2ccccc2c(-c2ccccc2Cl)n1 (configuration not stated) | inactive: 95.7%
CC(C)CCc1noc(CN(CC2CCC2)CC2CCCO2)n1 (configuration not stated) | inconclusive: 98.5%
O=C(O)c1cc(-c2ccc(Cl)cc2)n(-c2ccc(Cl)cc2)n1 | inactive: 98.1%
CCOC(=O)C1=C(c2ccccc2)NC(=O)NC1c1cc(Br)c(O)c(OC)c1 (configuration not stated) | inconclusive: 98.4%
Cc1nc(-c2ccccc2)sc1C1(C)CC(c2ccc(OC(F)(F)F)cc2)=NO1 (configuration not stated) | inconclusive: 95.9%
OC(CNCc1ccc2c(c1)OCO2)COc1ccccc1 (configuration not stated) | inconclusive: -109%
CC(OC(=O)c1ccccc1OCc1ccc(Cl)cc1)C(N)=O (configuration not stated) | inconclusive: 106%
COc1ccc(S(=O)(=O)N2CCOC2CNC(=O)C(=O)NCc2cccnc2)cc1C (configuration not stated) | inconclusive: 96.4%
CN1CCC(N(C)CC(C)(C)NS(=O)(=O)c2ccccc2)CC1 | inconclusive: 99.2%
COc1ccc2cc(S(=O)(=O)c3ccccc3)c(=O)oc2c1 | inconclusive: 417%
CCN1CCCC1CNCC(O)COc1ccc(C(C)(C)C)cc1C (configuration not stated) | inactive: 98.1%
Cc1ccc(C)c(NC(=O)CSc2nc(C)cc(C)c2C#N)c1 | inactive: 99.9%
CCCC(=O)N=c1sc2cccc(F)c2n1C | active: 18%
NNC(=O)CSc1nc(-c2ccccc2)cn1-c1ccccc1 | inconclusive: 427%
CNC(=O)Nc1ccc(C2SCCS2)cc1 | inconclusive: -111%
O=C(Cn1c(=O)oc2cccnc21)Nc1ccc(C(F)(F)F)cc1 | inconclusive: 77.1%
C/C(Cc1ccccc1)=N\NC(=O)CNC(=O)c1ccccc1Cl | inconclusive: 99%

SMILES | binding response (% of control)
CN(C)c1ccc(/C=C2\SC(=S)N(Nc3ncc(C(F)(F)F)cc3Cl)C2=O)cc1 | inactive: 119%
CCN(CC)CCOC(=O)c1ccc(N/C=C(/C#N)c2nc(-c3ccc(OC)c(OC)c3)cs2)cc1 | inconclusive: 87.6%
Cc1ccc(CSc2nnc(C(F)(F)F)n2Cc2ccc(F)cc2)cc1 | inactive: 103%
COc1ccc([N+](=O)[O-])c(S(=O)(=O)c2ccccc2)n1 | inconclusive: 73.5%
COc1ccc(-c2c([C@H]3[C@H]4C=CC[C@@H](C)[C@@H]4C(=O)N3Cc3ccccc3)ccc3ccccc23)cc1OC | inconclusive: 99.4%
O=C(Nc1ccccc1)/C(=C\c1ccccc1)NC(=O)c1ccco1 | inconclusive: 94.3%
Cc1ccc(CC(=O)NC2CCSC2=O)cc1 (configuration not stated) | inactive: 103%
O=C(COC(=O)C1=COCCO1)NCc1ccc(Cl)cc1 | inactive: 103%
COc1cc(/C=N/NC(=O)NC2CCCCC2)ccc1O | inconclusive: 95.5%
Cc1ccc([N+](=O)[O-])c(OCCn2cnc3ccccc32)c1 | inconclusive: 101%
Cc1ccc2c(c1)-c1ncc(C(=O)c3cc(Br)ccc3O)cc1CO2 | inconclusive: 120%
CC(C)CN(CC(C)C)CC(O)CN(c1ccccc1)S(=O)(=O)c1ccccc1[N+](=O)[O-] (configuration not stated) | inconclusive: 104%
NC(=O)[C@H]1CC2(CC(c3cccc(NC(=O)[C@H]4CCC(=O)N4)c3)=NO2)CN1C(=O)c1ccccc1C(=O)c1ccccc1 (some centres not stated) | inconclusive: 110%
Cc1ccc(NC(=O)CN2C(=O)S/C(=C\C(=O)Nc3ccc(Cl)cc3)C2=O)cc1 | inactive: 75.2%
Nc1nonc1C(=O)N/N=C/c1ccc(-c2ccc(Cl)c(C(=O)O)c2)o1 | inconclusive: 119%
CC(C)c1ccccc1OCCNC(=S)NC(=O)c1cccnc1 | inconclusive: 90.3%
CN(C)S(=O)(=O)c1ccc(NC(=O)CSc2nnnn2C)cc1 | inconclusive: 101%
C=CCn1c(Sc2ncc([N+](=O)[O-])s2)n[nH]c1=O | inconclusive: 43.6%
COc1ccc(-n2c(SCC(=O)N3CCOCC3)nnc2C(C)N2CCCCC2)cc1 (configuration not stated) | inconclusive: 90.1%

Compounds shown so far that contain bromine, in the order listed:
SMILES | binding response (% of control)
CCOC(=O)C1=C(c2ccccc2)NC(=O)NC1c1cc(Br)c(O)c(OC)c1 (configuration not stated) | inconclusive: 98.4%
Cc1ccc2c(c1)-c1ncc(C(=O)c3cc(Br)ccc3O)cc1CO2 | inconclusive: 120%
